Positions count from the first letter of the chain named. Results are given in words; binding and its absence hold for the method and conditions named. Binding seen in cells or lysates may run through a third protein. Some entries that bind do so weakly or less than the wild type. For part of these data: Tags and fused reporters may be left off the sequences shown.

Sequences of proteins named here, by UniProt entry; tags and fusion partners are left off. A change or cut given only in a name is not applied to a line headed by its entry.
UniProt A4D1E9: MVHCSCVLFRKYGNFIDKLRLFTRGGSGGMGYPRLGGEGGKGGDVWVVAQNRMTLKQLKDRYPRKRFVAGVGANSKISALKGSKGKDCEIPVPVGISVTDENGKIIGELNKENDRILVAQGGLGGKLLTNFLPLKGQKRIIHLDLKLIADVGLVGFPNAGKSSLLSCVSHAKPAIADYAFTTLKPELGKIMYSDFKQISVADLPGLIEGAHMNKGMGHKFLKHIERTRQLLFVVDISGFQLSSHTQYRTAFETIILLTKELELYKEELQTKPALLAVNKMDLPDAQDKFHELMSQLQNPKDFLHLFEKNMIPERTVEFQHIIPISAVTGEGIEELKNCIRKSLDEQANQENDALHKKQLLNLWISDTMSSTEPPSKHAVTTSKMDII
UniProt Q7Z6M4: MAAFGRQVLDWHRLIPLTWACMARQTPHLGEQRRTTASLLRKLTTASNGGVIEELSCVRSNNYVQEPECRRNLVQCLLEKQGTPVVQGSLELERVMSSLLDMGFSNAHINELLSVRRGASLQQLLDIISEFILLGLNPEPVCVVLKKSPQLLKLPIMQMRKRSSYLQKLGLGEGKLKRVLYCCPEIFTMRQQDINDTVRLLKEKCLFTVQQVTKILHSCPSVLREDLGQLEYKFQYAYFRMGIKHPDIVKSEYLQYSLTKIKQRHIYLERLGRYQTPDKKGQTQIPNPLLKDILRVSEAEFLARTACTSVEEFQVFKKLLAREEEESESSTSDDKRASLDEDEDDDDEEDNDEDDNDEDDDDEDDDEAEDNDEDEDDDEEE

The values that follow come from PMC7797037.

Assay [1] has as its target GTPBP10::FLAG (human) (UniProt A4D1E9). Nature of the assay: co-IP; FLAG-IP from mitochondrial lysate, buffers with 5 mM MgCl2, elution with 3X FLAG peptide; input and eluate by western blot; no nucleotide or RNase added. In general terms: Immunoblotting shows a protein as a band on a membrane.
In assay [2] the target is T1, GTPBP5^S238A::FLAG (human) (UniProt Q9H4K7).
T1 sequence: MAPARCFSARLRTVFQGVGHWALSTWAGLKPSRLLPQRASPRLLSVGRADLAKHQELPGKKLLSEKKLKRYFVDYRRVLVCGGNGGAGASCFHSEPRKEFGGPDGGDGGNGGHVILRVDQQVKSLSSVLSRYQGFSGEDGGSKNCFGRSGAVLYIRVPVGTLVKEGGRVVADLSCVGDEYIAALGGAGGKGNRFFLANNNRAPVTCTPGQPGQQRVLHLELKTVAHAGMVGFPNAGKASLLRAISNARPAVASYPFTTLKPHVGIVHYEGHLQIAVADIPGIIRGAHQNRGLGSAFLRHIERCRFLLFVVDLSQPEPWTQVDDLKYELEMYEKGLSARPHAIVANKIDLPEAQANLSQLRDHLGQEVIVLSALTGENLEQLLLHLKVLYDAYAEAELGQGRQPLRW
The description is as above.

Assay [3] deals with GTPBP10::FLAG (human) (UniProt A4D1E9). Nature of the assay: co-IP; FLAG-IP as above from lysates preincubated with GTP instead of GMPPNP; western blot.
Assay [4] shares this target. Nature of the assay: co-IP; FLAG-IP as above with 20 mM GMPPNP added to the mitochondrial lysate during lysis before the IP; western blot.
Assay [5] addresses T2, GTPBP5::FLAG (C-terminal FLAG-tagged GTPBP5) (human) (UniProt Q9H4K7).
T2 sequence: T1 sequence with A238S
Nature of the assay: co-IP; FLAG-IP from mitochondrial lysate, buffers with 5 mM MgCl2, elution with 3X FLAG peptide; input and eluate by western blot; no nucleotide or RNase added.

Assay [6] addresses T2, GTPBP5::FLAG (C-terminal FLAG-tagged GTPBP5) (human). Nature of the assay: condition: only lysate pre-treated with RNase A (20 μg/ml); co-IP; FLAG-IP as above from mitochondrial lysate pre-treated with RNase A (20 μg/ml) during lysis before the IP; western blot.
For assay [7] the target is unchanged. Nature of the assay: co-IP; FLAG-IP as above with 20 mM GMPPNP added to the mitochondrial lysate during lysis before the IP; western blot.
Assay [8] has the same target. Nature of the assay: co-IP; FLAG-IP from mitochondrial lysate, buffers with 5 mM MgCl2, elution with 3X FLAG peptide; input and eluate by western blot; no nucleotide or RNase added. The source holds these as a separate data set.

For “MTERF4:NSUN4 complex (from UniProt Q7Z6M4 43-381; Q96CB9 26-384)”, the binding result in assay [1], in assay [2], in assay [3] and in assay [4] was “no binding” each time.
For bL28m (from UniProt Q13084 56-256), the binding result in assay [5] was “binds”; in assay [6], “no binding”; in assay [7], “no binding (condition: with 20 mM GMPPNP)”.

B1: FASTKD4 (protein, UniProt Q969Z0 108-631)
chain: SHLLSEKPEDKGLLIQDAHFHQLLCLLNSQIASVWHGTLSKLLGSLYALGIPKASKELQSVEQEVRWRMRKLKYKHLAFLAESCATLSQEQHSQELLAELLTHLERRWTEIEDSHTLVTVMMKVGHLSEPLMNRLEDKCLELVEHFGPNELRKVLVMLAAQSRRSVPLLRAISYHLVQKPFSLTKDVLLDVAYAYGKLSFHQTQVSQRLATDLLSLMPSLTSGEVAHCAKSFALLKWLSLPLFEAFAQHVLNRAQDITLPHLCSVLLAFARLNFHPDQEDQFFSLVHEKLGSELPGLEPALQVDLVWALCVLQQAREAELQAVLHPEFHIQFLGGKSQKDQNTFQKLLHINATALLEYPEYSGPLLPASAVAPGPSALDRKVTPLQKELQETLKGLLGSADKGSLEVATQYGWVLDAEVLLDSDGEFLPVRDFVAPHLAQPTGSQSPPPGSKRLAFLRWEFPNFNSRSKDLLGRFVLARRHIVAAGFLIVDVPFYEWLELKSEWQKGAYLKDKMRKAVAEELAK
With B1, the binding result in assay [8] was “no binding”.

B2: MRM3 (enzyme, UniProt Q9HC36 41-420)
chain: VFPSGEVVEQKRAPGKQPRKAPSEASAQEQREKQPLEESASRAPSTWEESGLRYDKAYPGDRRLSSVMTIVKSRPFREKQGKILLEGRRLISDALKAGAVPKMFFFSRLEYLKELPVDKLKGVSLIKVKFEDIKDWSDLVTPQGIMGIFAKPDHVKMTYPKTQLQHSLPLLLICDNLRDPGNLGTILRSAAGAGCSKVLLTKGCVDAWEPKVLRAGMGAHFRMPIINNLEWETVPNYLPPDTRVYVADNCGLYAQAEMSNKASDHGWVCDQRVMKFHKYEEEEDVETGASQDWLPHVEVQSYDSDWTEAPAAVVIGGETYGVSLESLQLAESTGGKRLLIPVVPGVDSLNSAMAASILLFEGKRQLRGRAEDLSRDRSYH
As for B2, the binding entry in assay [8] was “no binding”.
